From paper doi:10.64898/2025.12.12.694012
Like-named read-outs stand apart in the source and are kept apart here. These are yes or no findings as the source states them, for the method shown. Binding seen in cells or lysates may run through a third protein. Some binding calls cover weakened binding; strength is not graded here. For some assays here: Where a sequence is shown, tags or fusion partners need not be part of it.

Chains of the proteins cited; added tags and fusions are not shown.
UniProt Q13547: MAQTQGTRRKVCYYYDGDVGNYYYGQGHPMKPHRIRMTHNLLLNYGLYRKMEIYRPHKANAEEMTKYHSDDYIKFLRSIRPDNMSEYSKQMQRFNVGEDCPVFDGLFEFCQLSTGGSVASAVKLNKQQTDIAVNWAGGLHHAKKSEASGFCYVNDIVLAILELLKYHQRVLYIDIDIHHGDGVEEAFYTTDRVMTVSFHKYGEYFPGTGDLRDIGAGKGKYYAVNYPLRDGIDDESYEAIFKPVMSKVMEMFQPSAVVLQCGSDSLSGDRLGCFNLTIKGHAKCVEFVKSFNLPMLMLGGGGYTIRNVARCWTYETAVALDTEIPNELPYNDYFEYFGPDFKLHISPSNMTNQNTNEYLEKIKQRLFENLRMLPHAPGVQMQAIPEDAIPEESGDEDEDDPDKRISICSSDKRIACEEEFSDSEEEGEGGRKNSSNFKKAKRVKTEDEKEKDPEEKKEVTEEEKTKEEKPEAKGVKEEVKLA
UniProt O15318: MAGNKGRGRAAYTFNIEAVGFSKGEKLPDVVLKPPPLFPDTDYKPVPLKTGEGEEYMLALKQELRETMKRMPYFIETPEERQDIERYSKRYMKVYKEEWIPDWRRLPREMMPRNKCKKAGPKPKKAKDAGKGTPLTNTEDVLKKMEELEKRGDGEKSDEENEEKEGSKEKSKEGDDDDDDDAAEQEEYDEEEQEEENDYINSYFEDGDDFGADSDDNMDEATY
UniProt Q9BUI4: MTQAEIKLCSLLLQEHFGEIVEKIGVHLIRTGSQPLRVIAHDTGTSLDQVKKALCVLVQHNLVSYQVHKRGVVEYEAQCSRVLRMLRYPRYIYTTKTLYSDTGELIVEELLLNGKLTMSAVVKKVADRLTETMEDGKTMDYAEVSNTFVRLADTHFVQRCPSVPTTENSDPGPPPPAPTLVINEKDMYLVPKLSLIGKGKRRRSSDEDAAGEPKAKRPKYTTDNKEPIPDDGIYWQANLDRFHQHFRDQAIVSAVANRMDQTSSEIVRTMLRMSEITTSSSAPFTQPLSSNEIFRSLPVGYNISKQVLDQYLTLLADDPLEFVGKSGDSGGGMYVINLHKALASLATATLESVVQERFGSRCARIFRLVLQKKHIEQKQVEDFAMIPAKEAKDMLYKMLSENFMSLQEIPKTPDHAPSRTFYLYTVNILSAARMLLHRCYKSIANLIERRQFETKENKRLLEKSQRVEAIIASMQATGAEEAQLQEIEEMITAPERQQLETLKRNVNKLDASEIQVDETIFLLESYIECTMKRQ

Legend:
Test in all cases: co-IP
[1] = target: Flag-tagged NuRD subunit HDAC1 (UniProt Q13547)
[2] = target: flag-tagged RPC7α (POLR3G) (UniProt O15318)
[3] = target: Flag-tagged NuRD subunit HDAC1 (UniProt Q13547); remark: listed apart in the source
[4] = target: flag-tagged RPC3 (POLR3C) (UniProt Q9BUI4)
[5] = target: T1, flag-tagged RPC7β (POLR3GL) (UniProt Q9BT43)
T1 sequence: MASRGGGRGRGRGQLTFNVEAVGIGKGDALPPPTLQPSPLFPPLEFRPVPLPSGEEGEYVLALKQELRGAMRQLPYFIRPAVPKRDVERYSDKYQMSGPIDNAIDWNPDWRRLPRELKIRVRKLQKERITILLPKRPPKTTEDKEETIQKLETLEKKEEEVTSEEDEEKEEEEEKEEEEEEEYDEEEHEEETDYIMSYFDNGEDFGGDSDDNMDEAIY

## RPC3 (POLR3C), endogenous (from UniProt Q9BUI4 1-534)
[1]
  binding: binds

B1: RPC1 (POLR3A), endogenous (protein, UniProt O14802 1-1390)
chain: MVKEQFRETDVAKKISHICFGMKSPEEMRQQAHIQVVSKNLYSQDNQHAPLLYGVLDHRMGTSEKDRPCETCGKNLADCLGHYGYIDLELPCFHVGYFRAVIGILQMICKTCCHIMLSQEEKKQFLDYLKRPGLTYLQKRGLKKKISDKCRKKNICHHCGAFNGTVKKCGLLKIIHEKYKTNKKVVDPIVSNFLQSFETAIEHNKEVEPLLGRAQENLNPLVVLNLFKRIPAEDVPLLLMNPEAGKPSDLILTRLLVPPLCIRPSVVSDLKSGTNEDDLTMKLTEIIFLNDVIKKHRISGAKTQMIMEDWDFLQLQCALYINSELSGIPLNMAPKKWTRGFVQRLKGKQGRFRGNLSGKRVDFSGRTVISPDPNLRIDEVAVPVHVAKILTFPEKVNKANINFLRKLVQNGPEVHPGANFIQQRHTQMKRFLKYGNREKMAQELKYGDIVERHLIDGDVVLFNRQPSLHKLSIMAHLARVKPHRTFRFNECVCTPYNADFDGDEMNLHLPQTEEAKAEALVLMGTKANLVTPRNGEPLIAAIQDFLTGAYLLTLKDTFFDRAKACQIIASILVGKDEKIKVRLPPPTILKPVTLWTGKQIFSVILRPSDDNPVRANLRTKGKQYCGKGEDLCANDSYVTIQNSELMSGSMDKGTLGSGSKNNIFYILLRDWGQNEAADAMSRLARLAPVYLSNRGFSIGIGDVTPGQGLLKAKYELLNAGYKKCDEYIEALNTGKLQQQPGCTAEETLEALILKELSVIRDHAGSACLRELDKSNSPLTMALCGSKGSFINISQMIACVGQQAISGSRVPDGFENRSLPHFEKHSKLPAAKGFVANSFYSGLTPTEFFFHTMAGREGLVDTAVKTAETGYMQRRLVKSLEDLCSQYDLTVRSSTGDIIQFIYGGDGLDPAAMEGKDEPLEFKRVLDNIKAVFPCPSEPALSKNELILTTESIMKKSEFLCCQDSFLQEIKKFIKGVSEKIKKTRDKYGINDNGTTEPRVLYQLDRITPTQVEKFLETCRDKYMRAQMEPGSAVGALCAQSIGEPGTQMTLKTFHFAGVASMNITLGVPRIKEIINASKAISTPIITAQLDKDDDADYARLVKGRIEKTLLGEISEYIEEVFLPDDCFILVKLSLERIRLLRLEVNAETVRYSICTSKLRVKPGDVAVHGEAVVCVTPRENSKSSMYYVLQFLKEDLPKVVVQGIPEVSRAVIHIDEQSGKEKYKLLVEGDNLRAVMATHGVKGTRTTSNNTYEVEKTLGIEAARTTIINEIQYTMVNHGMSIDRRHVMLLSDLMTYKGEVLGITRFGLAKMKESVLMLASFEKTADHLFDAAYFGQKDSVCGVSECIIMGIPMNIGTGLFKLLHKADRDPNPPKRPLIFDTNEFHIPLVT
[2]
  binding: binds
[3]
  binding: binds
[4]
  binding: binds
[5]
  binding: binds

B2: RPC2 (POLR3B), endogenous (protein, UniProt Q9NW08 1-1133)
chain: MDVLAEEFGNLTPEQLAAPIPTVEEKWRLLPAFLKVKGLVKQHIDSFNYFINVEIKKIMKANEKVTSDADPMWYLKYLNIYVGLPDVEESFNVTRPVSPHECRLRDMTYSAPITVDIEYTRGSQRIIRNALPIGRMPIMLRSSNCVLTGKTPAEFAKLNECPLDPGGYFIVKGVEKVILIQEQLSKNRIIVEADRKGAVGASVTSSTHEKKSRTNMAVKQGRFYLRHNTLSEDIPIVIIFKAMGVESDQEIVQMIGTEEHVMAAFGPSLEECQKAQIFTQMQALKYIGNKVRRQRMWGGGPKKTKIEEARELLASTILTHVPVKEFNFRAKCIYTAVMVRRVILAQGDNKVDDRDYYGNKRLELAGQLLSLLFEDLFKKFNSEMKKIADQVIPKQRAAQFDVVKHMRQDQITNGMVNAISTGNWSLKRFKMDRQGVTQVLSRLSYISALGMMTRISSQFEKTRKVSGPRSLQPSQWGMLCPSDTPEGEACGLVKNLALMTHITTDMEDGPIVKLASNLGVEDVNLLCGEELSYPNVFLVFLNGNILGVIRDHKKLVNTFRLMRRAGYINEFVSISTNLTDRCVYISSDGGRLCRPYIIVKKQKPAVTNKHMEELAQGYRNFEDFLHESLVEYLDVNEENDCNIALYEHTINKDTTHLEIEPFTLLGVCAGLIPYPHHNQSPRNTYQCAMGKQAMGTIGYNQRNRIDTLMYLLAYPQKPMVKTKTIELIEFEKLPAGQNATVAVMSYSGYDIEDALVLNKASLDRGFGRCLVYKNAKCTLKRYTNQTFDKVMGPMLDAATRKPIWRHEILDADGICSPGEKVENKQVLVNKSMPTVTQIPLEGSNVPQQPQYKDVPITYKGATDSYIEKVMISSNAEDAFLIKMLLRQTRRPEIGDKFSSRHGQKGVCGLIVPQEDMPFCDSGICPDIIMNPHGFPSRMTVGKLIELLAGKAGVLDGRFHYGTAFGGSKVKDVCEDLVRHGYNYLGKDYVTSGITGEPLEAYIYFGPVYYQKLKHMVLDKMHARARGPRAVLTRQPTEGRSRDGGLRLGEMERDCLIGYGASMLLLERLMISSDAFEVDVCGQCGLLGYSGWCHYCKSSCHVSSLRIPYACKLLFQELQSMNIIPRLKLSKYNE
[3]
  binding: binds

B3: RPC4 (POLR3D), endogenous (protein, UniProt P05423 1-398)
chain: MSEGNAAGEPSTPGGPRPLLTGARGLIGRRPAPPLTPGRLPSIRSRDLTLGGVKKKTFTPNIISRKIKEEPKEEVTVKKEKRERDRDRQREGHGRGRGRPEVIQSHSIFEQGPAEMMKKKGNWDKTVDVSDMGPSHIINIKKEKRETDEETKQILRMLEKDDFLDDPGLRNDTRNMPVQLPLAHSGWLFKEENDEPDVKPWLAGPKEEDMEVDIPAVKVKEEPRDEEEEAKMKAPPKAARKTPGLPKDVSVAELLRELSLTKEEELLFLQLPDTLPGQPPTQDIKPIKTEVQGEDGQVVLIKQEKDREAKLAENACTLADLTEGQVGKLLIRKSGRVQLLLGKVTLDVTMGTACSFLQELVSVGLGDSRTGEMTVLGHVKHKLVCSPDFESLLDHKHR
[3]
  binding: binds

B4: RPC5 (POLR3E), endogenous (protein, UniProt Q9NVU0 1-708)
chain: MANEEDDPVVQEIDVYLAKSLAEKLYLFQYPVRPASMTYDDIPHLSAKIKPKQQKVELEMAIDTLNPNYCRSKGEQIALNVDGACADETSTYSSKLMDKQTFCSSQTTSNTSRYAAALYRQGELHLTPLHGILQLRPSFSYLDKADAKHREREAANEAGDSSQDEAEDDVKQITVRFSRPESEQARQRRVQSYEFLQKKHAEEPWVHLHYYGLRDSRSEHERQYLLCPGSSGVENTELVKSPSEYLMMLMPPSQEEEKDKPVAPSNVLSMAQLRTLPLADQIKILMKNVKVMPFANLMSLLGPSIDSVAVLRGIQKVAMLVQGNWVVKSDILYPKDSSSPHSGVPAEVLCRGRDFVMWKFTQSRWVVRKEVATVTKLCAEDVKDFLEHMAVVRINKGWEFILPYDGEFIKKHPDVVQRQHMLWTGIQAKLEKVYNLVKETMPKKPDAQSGPAGLVCGDQRIQVAKTKAQQNHALLERELQRRKEQLRVPAVPPGVRIKEEPVSEEGEEDEEQEAEEEPMDTSPSGLHSKLANGLPLGRAAGTDSFNGHPPQGCASTPVARELKAFVEATFQRQFVLTLSELKRLFNLHLASLPPGHTLFSGISDRMLQDTVLAAGCKQILVPFPPQTAASPDEQKVFALWESGDMSDQHRQVLLEIFSKNYRVRRNMIQSRLTQECGEDLSKQEVDKVLKDCCVSYGGMWYLKGTVQS
[3]
  binding: binds
